Experimental data: paper PMC5698697
Results are given in words; binding and its absence hold for the method and conditions named. In cells and extracts the contact can be indirect. Some binding calls cover weakened binding; strength is not graded here. Sequences can lack the tags named with a protein.

Chains of the proteins cited; added tags and fusions are not shown. Residues count along the entry.
UniProt Q9QUN7, residues 25-784: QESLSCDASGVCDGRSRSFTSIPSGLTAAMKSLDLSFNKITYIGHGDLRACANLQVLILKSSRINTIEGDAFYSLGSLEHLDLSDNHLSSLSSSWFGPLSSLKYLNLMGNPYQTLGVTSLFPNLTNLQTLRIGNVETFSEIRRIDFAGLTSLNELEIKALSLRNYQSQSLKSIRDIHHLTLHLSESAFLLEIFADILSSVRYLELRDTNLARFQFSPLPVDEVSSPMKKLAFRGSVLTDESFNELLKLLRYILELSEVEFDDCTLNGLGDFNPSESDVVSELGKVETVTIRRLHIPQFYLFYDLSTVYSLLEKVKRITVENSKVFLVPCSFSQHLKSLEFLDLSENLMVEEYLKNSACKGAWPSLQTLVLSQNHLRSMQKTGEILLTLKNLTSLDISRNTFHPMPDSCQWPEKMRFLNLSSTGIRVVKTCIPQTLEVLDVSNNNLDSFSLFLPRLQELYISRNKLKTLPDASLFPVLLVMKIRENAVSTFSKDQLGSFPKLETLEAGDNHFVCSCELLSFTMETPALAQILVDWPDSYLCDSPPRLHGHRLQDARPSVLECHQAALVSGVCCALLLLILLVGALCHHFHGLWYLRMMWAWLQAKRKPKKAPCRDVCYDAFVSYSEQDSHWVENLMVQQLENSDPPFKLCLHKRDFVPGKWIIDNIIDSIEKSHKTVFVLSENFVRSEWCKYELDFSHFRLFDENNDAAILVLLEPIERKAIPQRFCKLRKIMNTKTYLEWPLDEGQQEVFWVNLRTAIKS

Legend:
[1] = molecular target: T1, Toll-like receptor 12 (TLR12), endogenous in RAW 264.7 mouse macrophages (mouse (endogenous in RAW 264.7)) (UniProt Q6QNU9); experiment: co-IP; RAW 264.7 cells treated with Rv2029c (10 μg/ml) for 8 h, lysed with RIPA buffer, precleared; immunoprecipitated with isotype IgG, anti-TLR2, anti-TLR12 or anti-Rv2029c overnight at 4°C; blots probed with anti-TLR2, anti-TLR12 or anti-His; only the binder purified
T1 sequence: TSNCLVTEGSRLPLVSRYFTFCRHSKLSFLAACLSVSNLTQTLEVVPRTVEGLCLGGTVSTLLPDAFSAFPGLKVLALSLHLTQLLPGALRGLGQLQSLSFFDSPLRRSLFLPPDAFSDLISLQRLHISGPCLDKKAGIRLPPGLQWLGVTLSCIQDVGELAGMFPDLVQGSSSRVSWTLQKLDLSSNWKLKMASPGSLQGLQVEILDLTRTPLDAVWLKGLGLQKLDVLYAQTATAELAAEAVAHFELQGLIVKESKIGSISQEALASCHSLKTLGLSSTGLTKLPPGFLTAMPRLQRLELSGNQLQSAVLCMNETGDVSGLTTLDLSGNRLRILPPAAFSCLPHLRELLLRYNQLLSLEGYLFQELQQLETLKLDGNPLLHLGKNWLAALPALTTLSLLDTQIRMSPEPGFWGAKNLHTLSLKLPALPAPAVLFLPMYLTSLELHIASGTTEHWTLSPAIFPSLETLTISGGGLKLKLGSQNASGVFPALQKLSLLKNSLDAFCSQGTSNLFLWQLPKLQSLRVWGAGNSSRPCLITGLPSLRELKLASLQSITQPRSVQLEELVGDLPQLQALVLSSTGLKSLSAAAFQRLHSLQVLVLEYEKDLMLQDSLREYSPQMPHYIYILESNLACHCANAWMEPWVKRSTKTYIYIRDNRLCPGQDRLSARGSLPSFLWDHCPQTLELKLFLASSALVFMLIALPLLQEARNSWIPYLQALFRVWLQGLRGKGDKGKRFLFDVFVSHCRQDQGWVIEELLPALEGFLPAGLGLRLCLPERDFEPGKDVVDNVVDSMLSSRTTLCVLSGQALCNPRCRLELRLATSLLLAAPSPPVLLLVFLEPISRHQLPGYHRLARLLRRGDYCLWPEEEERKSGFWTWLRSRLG

[2] = molecular target: Toll-like receptor 2 (TLR2), endogenous in RAW 264.7 mouse macrophages (mouse (endogenous in RAW 264.7)) (UniProt Q9QUN7); experiment: as above

B1: Mycobacterium tuberculosis latency-associated antigen Rv2029c, recombinant, His-tagged (protein, UniProt P9WID3 1-339)
chain: MTEPAAWDEGKPRIITLTMNPALDITTSVDVVRPTEKMRCGAPRYDPGGGGINVARIVHVLGGCSTALFPAGGSTGSLLMALLGDAGVPFRVIPIAASTRESFTVNESRTAKQYRFVLPGPSLTVAEQEQCLDELRGAAASAAFVVASGSLPPGVAADYYQRVADICRRSSTPLILDTSGGGLQHISSGVFLLKASVRELRECVGSELLTEPEQLAAAHELIDRGRAEVVVVSLGSQGALLATRHASHRFSSIPMTAVSGVGAGDAMVAAITVGLSRGWSLIKSVRLGNAAGAAMLLTPGTAACNRDDVERFFELAAEPTEVGQDQYVWHPIVNPEASP
For B1, the binding [1] was “no binding (tested: 10 μg/ml)” and the binding [2] was “binds”.
